Measurements reported in article PMC7489914, “Structural and functional studies of Arabidopsis thaliana legumain beta reveal isoform specific mechanisms of activation and substrate recognition” (The Journal of Biological Chemistry, 2020).
Positions count from the first letter of the chain named. Names may count otherwise. These are yes or no findings as the source states them, for the method shown. Some results given as binding are weak or reduced against the parent protein; the word gives no strength. Blank lines part the entries; values can stand above or below the binder they belong to.

Experiments:
[1] = biological target: two-chain AtLEGβ (two-chain intermediate state) (Arabidopsis thaliana) (UniProt Q39044); test: SEC; pH 5.0-activated AtLEGβ on an S200 column, 20 mM citric acid pH 5.0, 100 mM NaCl; BSA as size standard; both purified
[2] = biological target: proAtLEGβ C211A dead mutant (Arabidopsis thaliana) (UniProt Q39044); test: crystal structure; proAtLEGβ C211A at 10 mg/ml; 0.5 M ammonium sulfate, 1 M lithium sulfate, 0.1 M trisodium citrate; 2.0 Å, 12 molecules in the asymmetric unit; both purified
[3] = biological target: Arabidopsis thaliana prolegumain isoform beta (proAtLEGβ) (Arabidopsis thaliana) (UniProt Q39044); test: SEC; 200 µl proAtLEGβ on an S200 10/300 GL column, 20 mM Hepes pH 7.5, 100 mM NaCl (the results say pH 7.0); BSA as size standard; both purified

binding [1]: no binding
B1: two-chain AtLEGβ (two-chain intermediate state) (complex, UniProt Q39044 22-333; Q39044 346-486)
chain 1: ESRGRFEPKILMPTEEANPADQDEDGVGTRWAVLVAGSSGYGNYRHQADVCHAYQILRKGGLKEENIVVLMYDDIANHPLNPRPGTLINHPDGDDVYAGVPKDYTGSSVTAANFYAVLLGDQKAVKGGSGKVIASKPNDHIFVYYADHGGPGVLGMPNTPHIYAADFIETLKKKHASGTYKEMVIYVEACESGSIFEGIMPKDLNIYVTTASNAQESSYGTYCPGMNPSPPSEYITCLGDLYSVAWMEDSETHNLKKETIKQQYHTVKMRTSNYNTYSGGSHVMEYGNNSIKSEKLYLYQGFDPATVNLPLN
chain 2: QRDADLLFLWHMYRTSEDGSRKKDDTLKELTETTRHRKHLDASVELIATILFGPTMNVLNLVREPGLPLVDDWECLKSMVRVFEEHCGSLTQYGMKHMRAFANVCNNGVSKELMEEASTAACGGYSEARYTVHPSILGYSA

binding [2]: binds weakly
B2: proAtLEGβ C211A dead mutant (enzyme, UniProt Q39044 22-486)
chain: ESRGRFEPKILMPTEEANPADQDEDGVGTRWAVLVAGSSGYGNYRHQADVCHAYQILRKGGLKEENIVVLMYDDIANHPLNPRPGTLINHPDGDDVYAGVPKDYTGSSVTAANFYAVLLGDQKAVKGGSGKVIASKPNDHIFVYYADHGGPGVLGMPNTPHIYAADFIETLKKKHASGTYKEMVIYVEAAESGSIFEGIMPKDLNIYVTTASNAQESSYGTYCPGMNPSPPSEYITCLGDLYSVAWMEDSETHNLKKETIKQQYHTVKMRTSNYNTYSGGSHVMEYGNNSIKSEKLYLYQGFDPATVNLPLNELPVKSKIGVVNQRDADLLFLWHMYRTSEDGSRKKDDTLKELTETTRHRKHLDASVELIATILFGPTMNVLNLVREPGLPLVDDWECLKSMVRVFEEHCGSLTQYGMKHMRAFANVCNNGVSKELMEEASTAACGGYSEARYTVHPSILGYSA
modifications: glycosylation at Asn309

binding [3]: no binding
B3: Arabidopsis thaliana prolegumain isoform beta (proAtLEGβ) (enzyme, UniProt Q39044 22-486)
chain: B2 chain with A190C
